Measured values: US10047083B2, “Dihydropyrimidinoisoquinolinones and pharmaceutical compositions thereof for the treatment of inflammatory disorders” (GALAPAGOS NV, priority 2011, dated 2018)
At least one compound was matched to its structure with a doubt left.

By UniProt entry, the sequences of proteins in these tests, tags left out. Where a name states a change or a piece, a line headed by the entry shows the natural chain unless it says otherwise.
UniProt Q9NQS5: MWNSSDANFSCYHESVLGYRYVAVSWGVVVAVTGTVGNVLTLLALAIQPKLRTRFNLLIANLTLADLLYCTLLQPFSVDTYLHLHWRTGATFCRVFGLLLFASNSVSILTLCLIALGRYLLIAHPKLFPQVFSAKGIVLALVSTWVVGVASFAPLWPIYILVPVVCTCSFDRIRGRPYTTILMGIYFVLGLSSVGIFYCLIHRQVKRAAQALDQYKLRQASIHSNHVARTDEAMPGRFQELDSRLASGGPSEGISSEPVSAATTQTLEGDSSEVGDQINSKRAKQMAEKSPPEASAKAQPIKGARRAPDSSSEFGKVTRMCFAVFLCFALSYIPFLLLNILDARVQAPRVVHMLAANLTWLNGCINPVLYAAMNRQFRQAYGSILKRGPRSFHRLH

What was measured:
GPR84 = molecular target: T1, GPR84 (Homo sapiens, UniProt Q9NQS5); conditions: Wang et al. (2006); WO 2007/027661A2; cited from earlier work
T1 construct: expressed in transfected cells; membranes used

human neutrophils = assay: Human neutrophil migration assay (embelin-induced); type: cell-based

CCCCCCCCCCCC1=C(O)C(=O)C=C(O)C1=O [embelin]
GPR84 agonist activity (GPR84): some GPR84 agonist activity
induction of neutrophil chemotaxis by GPR84 agonists (human neutrophils): induce neutrophil chemo taxis
